A short description of the test: qHTS Assay for Lipid Storage Modulators in Drosophila S3 Cells.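 On cell number change: cells counted by Cell Tracker Red CMTPX staining in the red channel.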 To be noted: BODIPY lipid droplet fluorescence, 18-24 h; for cell number change: measured here: cell count max response, cells fed with added oleic acid. The method, boiled down:
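Laser-scanning cytometry quantifies lipid droplet accumulation (500–530 nm total intensity; droplet/cell object ratio) in oleic acid-fed (400 uM added) Drosophila S3 cells treated with a concentration series. 20 uM Triacsin C defined 100% inhibition.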
On the technique in general: In qHTS, concentration-response curves come from the screen itself.

Where [1] appears, read: measured here: cell number channel AC50, cells fed with added oleic acid.
Setting [2] is: measured here: lipid fluorescence (Fed channel) AC50, cells fed with added oleic acid.

The source of these data is PubChem BioAssay AID2685 (National Center for Advancing Translational Sciences (NCATS), 2010).

The other results are listed elsewhere or left out. The main result of the screen is listed elsewhere. These columns were measured beside it and carry no call. The list favours compounds with an active or inconclusive main result. Potencies come from curve fits of mixed quality, noted in brackets.

In general, AC50 refers to the concentration giving half of the maximal activity seen. Low values mean greater potency, high ones weaker potency. In the case of `CCN(CC(=O)Nc1ccc(OC)cc1)C(=O)C1CCN(C(=O)c2ccc(Cl)cc2)CC1`, the cell number change was 1.43%. The AC50 under setting [1] is 4.11 µM [falling, single point]. Also, the AC50 under setting [2] was 6.51 µM [falling, single point].

As to `O=C(O)c1ccc(S(=O)(=O)c2ccc3c(c2)C(=O)N(c2ccccc2[N+](=O)[O-])C3=O)cc1`, the cell number change amounted to 19.4%.

On to `O=S(=O)(Nc1ccc(S(=O)(=O)N2CCCC2)cc1)c1ccc(F)cc1`, for which the cell number change was -1.67%. Under setting [2], the AC50 was 0.231 µM [falling, full curve]. Take `Cc1ccc(-c2csc3nc(CSc4nnc(-c5ccc(Cl)cc5)n4C)[nH]c(=O)c23)cc1`: under setting [1], the AC50 was 6.51 µM [falling, partial curve, poor fit]. Consider `C=C1N(c2ccc(Cl)cc2)C(=O)OC1(C)C`, for which the cell number change is -24.3%. Besides, under setting [2], the AC50 is 2.59 µM [falling, partial curve].

As to `CCC(CC)NC(=O)c1ccc2nc[nH]c2c1`, the cell number change is 12.3%. On to `O=C1CCC(C(=O)Nc2ccc([N+](=O)[O-])cc2)N1` (stereo not given), for which the cell number change is -26.8%. Also, the AC50 under setting [2] is 0.082 µM [rising, full curve, poor fit]. For `COCc1c(C(=O)N2CCN(Cc3c(F)cccc3Cl)CC2)oc2ccccc12`, the cell number change stood at 30.6%. Besides, the AC50 under setting [1] was 4.11 µM [rising, full curve, poor fit]. The AC50 under setting [2] is 0.82 µM [rising, full curve, poor fit]. For the compound `COc1ccc(NC(=O)c2nn(C)c3c2CS(=O)(=O)c2ccccc2-3)cc1`, the AC50 under setting [1] is 1.64 µM [rising, partial curve, poor fit] and the AC50 under setting [2] was 2.91 µM [rising, single point]. Turning to `COc1ccc(C(CCNCc2ccc(N(C)C)cc2)c2ccccc2OC)cc1` (stereo not given), the cell number change was -6.31%. The AC50 under setting [2] is 29.1 µM [falling, single point]. For `CC(=O)Nc1cc2c(cc1Br)OCCO2`, the cell number change is -204%. Further, the AC50 under setting [1] was 20.6 µM [falling, partial curve]. The AC50 under setting [2] is 20.6 µM [falling, partial curve]. With `CC1CC(C)CN(c2cc3c(cc2[N+](=O)[O-])C(=O)N(c2ccccc2)C3=O)C1` (stereo not given), the cell number change was -26.6%. In addition, the AC50 under setting [2] is 23.1 µM [falling, single point].

Turning to `CCn1cnc2c1c(=O)n(CC(=O)NCC(F)(F)F)c(=O)n2Cc1ccccc1`, the cell number change was -16.8%. Further, the AC50 under setting [1] is 6.51 µM [rising, single point]. Also, the AC50 under setting [2] is 4.11 µM [rising, single point]. For `CCc1ccccc1N(CC(=O)N1CCCCC1)S(=O)(=O)c1ccccc1`, the cell number change was 11.3%. `CCOC(=O)c1c(CN(C)C)n(-c2ccc(C)cc2)c2cc(Br)c(O)cc12`: the cell number change amounted to 1.5%. Also, the AC50 under setting [2] was 16.4 µM [rising, partial curve]. On to `COc1ccccc1-c1cc(C(=O)Nc2cccnc2)no1`, for which the cell number change is -36.3%. The AC50 under setting [1] was 20.6 µM [falling, single point]. Further, the AC50 under setting [2] is 20.6 µM [falling, single point]. `CC(C)CCC(CC(C)O)c1n[nH]c(=S)n1-c1ccccc1` (stereo not given): the cell number change is -0.171%. Besides, the AC50 under setting [1] was 0.82 µM [falling, full curve]. Moreover, the concentration at half-maximal activity (AC50) under setting [2] is 1.16 µM [falling, single point]. For `S=C(NCc1cccs1)Nc1ccc(Cl)cc1`, the cell number change was -22.1%. For the same compound, the AC50 under setting [2] is 23.1 µM [falling, partial curve, poor fit]. `CN1/C(=C/C(=O)C2CC2)C(C)(C)c2ccccc21`: the cell number change was -21.6%. The AC50 under setting [2] is 0.00731 µM [falling, full curve, poor fit]. With `CC(=O)NCCc1ccc(C(=O)Cn2cnc3ccccc3c2=O)cc1`, the cell number change stood at 10.5%. In addition, under setting [2], the AC50 is 35.5 µM [falling, partial curve, poor fit].

`COC(=O)c1ccc(N2CCN(C)CC2)c(NC(=O)c2cccs2)c1`: the cell number change turned out to be 20.5%. Further, the AC50 under setting [2] was 6.51 µM [rising, single point].

As for `Nn1c(Cc2ccc(Br)cc2)n[nH]c1=S`, the cell number change was -24.5%. Besides, the AC50 under setting [1] is 3.66 µM [falling, single point]. As to `C=CCC(NCc1ccccc1)c1ccc(OC)cc1` (stereo not given), the cell number change is -5.26%. As to `FC(F)C(F)(F)C1=CC(c2ccccc2)=NCCN1`, the cell number change is -0.281%. Turning to `COc1ccc(CCNc2ncnc3sc(C)cc23)cc1OC`, under setting [2], the concentration at half-maximal activity (AC50) was 2.06 µM [falling, full curve]. `CN1C=CC(=C2C(=O)c3ccccc3C2=O)C=C1`: the cell number change was 12.2%. For the same compound, the AC50 under setting [2] is 7.31 µM [falling, partial curve, poor fit]. Consider `COc1cccc(=O)c2c(C)n(CC(=O)c3ccccc3)c(C)c12`, for which the cell number change was -6.57%. In addition, the AC50 under setting [2] is 0.366 µM [falling, full curve, poor fit]. For the compound `CCNC(=O)C1(c2ccccc2)CCCC1`, the cell number change is 6.11%. Further, under setting [2], the AC50 is 0.092 µM [falling, full curve]. `O=C(CSc1ccc(Br)cc1)NC1CCS(=O)(=O)C1` (stereo not given): the cell number change was -9.08%.

On to `CN(C)C(=O)COC(=O)/C=C/c1ccccc1[N+](=O)[O-]`, for which the AC50 under setting [1] is 0.116 µM [falling, full curve, poor fit] and the AC50 under setting [2] was 0.651 µM [falling, single point]. Turning to `O=C(CSc1nnc(-c2cnccn2)n1Cc1ccco1)c1ccccc1`, the cell number change came to 21.3%. Further, the AC50 under setting [2] is 0.00461 µM [falling, full curve, poor fit]. With `COc1ccc(C)cc1S(=O)(=O)Nc1cc2c3c(c1)CC(=O)N3CCC2`, the cell number change was 79.1%. The AC50 under setting [1] is 0.291 µM [rising, full curve]. In the case of `Cc1ccc(O)c(C(CC(=O)NCc2cccnc2)c2ccccc2)c1` (stereo not given), the cell number change is 39.9%. Moreover, the concentration at half-maximal activity (AC50) under setting [1] was 0.731 µM [rising, full curve]. Besides, the AC50 under setting [2] was 6.51 µM [falling, single point]. Consider `CCCCN(C(=O)NC(=O)C1=C(N2CCOCC2)/C(=C/c2ccccc2)CC1)S(C)(=O)=O`, for which the cell number change is -27%. The AC50 under setting [2] was 0.92 µM [falling, full curve, poor fit]. In the case of `CCOc1ccc(N2CC(C(=O)Nc3cccc(C(=O)NC4CC4)c3)CC2=O)cc1` (stereo not given), the cell number change was -28.1%. Moreover, under setting [1], the AC50 was 0.0058 µM [falling, full curve, poor fit]. With `CCCc1cc(C(=O)N2CCCC(C(=O)c3ccc(Cl)cc3)C2)n(C)n1` (stereo not given), the cell number change was -19.8%. Besides, the AC50 under setting [2] was 2.31 µM [falling, full curve]. Consider `CCCCc1nc(C(N)=O)c2[nH]c(=O)n(-c3ccc(OC)cc3OC)c2n1`, for which the cell number change was -44.8%. The AC50 under setting [1] was 29.1 µM [falling, single point]. For the compound `Cc1cccn2c(=O)c(/C=C(\C#N)S(=O)(=O)c3ccccc3)c(N3CCC(C(N)=O)CC3)nc12`, the cell number change was 6.43%. Besides, the AC50 under setting [2] is 7.31 µM [falling, partial curve, poor fit].
